For at least one entry, the source does not settle the construct or the ends of the probe. Results from cells or extracts need not show a direct contact. At least one verdict was read from the data and is not stated in words by the source.
Test system: C/EBPα
Experiment: EMSA
Conditions: LightShift Chemiluminescent EMSA Kit per manufacturer; pH and temperature not stated; protein in an extract; label: 5' biotin

Sequence | binding result
AGAGTCACACCATTTCACCACGTAGGTGTG (double strand) [O. mykiss fads2 promoter C/EBPα probe] | binds
CATGCTTCATGTCGAAACAGACAAATGATG (double strand) [L. crocea fads2 promoter C/EBPα probe] | binds
